Test results: paper PMC11574364

By UniProt entry, the sequences of proteins in these tests, tags left out. Where a name states a change or a piece, a line headed by the entry shows the natural chain unless it says otherwise.
UniProt P15309: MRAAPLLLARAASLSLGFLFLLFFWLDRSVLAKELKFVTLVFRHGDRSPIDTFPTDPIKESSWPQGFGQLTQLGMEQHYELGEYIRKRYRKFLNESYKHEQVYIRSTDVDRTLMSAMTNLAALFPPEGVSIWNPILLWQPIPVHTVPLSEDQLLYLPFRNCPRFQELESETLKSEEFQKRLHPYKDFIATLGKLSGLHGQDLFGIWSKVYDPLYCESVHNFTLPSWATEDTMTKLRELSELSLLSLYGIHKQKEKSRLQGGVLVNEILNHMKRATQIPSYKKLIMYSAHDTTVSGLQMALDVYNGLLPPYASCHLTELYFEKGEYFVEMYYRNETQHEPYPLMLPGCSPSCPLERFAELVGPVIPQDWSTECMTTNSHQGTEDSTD
UniProt Q8NEX6: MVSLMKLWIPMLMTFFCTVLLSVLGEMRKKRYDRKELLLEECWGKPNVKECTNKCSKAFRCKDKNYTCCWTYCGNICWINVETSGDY
UniProt P25440: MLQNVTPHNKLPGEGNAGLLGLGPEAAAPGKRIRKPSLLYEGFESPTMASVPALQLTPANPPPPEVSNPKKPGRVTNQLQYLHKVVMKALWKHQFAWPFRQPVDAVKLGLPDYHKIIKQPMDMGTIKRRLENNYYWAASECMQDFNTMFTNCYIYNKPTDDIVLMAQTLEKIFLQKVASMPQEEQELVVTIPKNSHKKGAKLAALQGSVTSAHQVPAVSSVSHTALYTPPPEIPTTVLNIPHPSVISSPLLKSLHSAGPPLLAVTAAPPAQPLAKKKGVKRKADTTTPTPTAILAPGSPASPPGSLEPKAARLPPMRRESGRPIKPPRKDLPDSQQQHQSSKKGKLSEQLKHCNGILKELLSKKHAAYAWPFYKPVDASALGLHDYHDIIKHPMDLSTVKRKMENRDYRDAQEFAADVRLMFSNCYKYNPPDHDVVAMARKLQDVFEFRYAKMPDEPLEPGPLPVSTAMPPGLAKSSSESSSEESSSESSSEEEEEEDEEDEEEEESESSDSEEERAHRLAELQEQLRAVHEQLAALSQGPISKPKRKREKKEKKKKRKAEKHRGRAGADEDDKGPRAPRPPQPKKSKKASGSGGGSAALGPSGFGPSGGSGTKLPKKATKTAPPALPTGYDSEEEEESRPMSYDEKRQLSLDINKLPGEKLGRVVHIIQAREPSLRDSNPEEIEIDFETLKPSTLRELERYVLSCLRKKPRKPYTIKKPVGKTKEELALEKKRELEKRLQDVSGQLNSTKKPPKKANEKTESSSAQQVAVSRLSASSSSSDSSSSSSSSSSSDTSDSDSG
UniProt Q96RR4: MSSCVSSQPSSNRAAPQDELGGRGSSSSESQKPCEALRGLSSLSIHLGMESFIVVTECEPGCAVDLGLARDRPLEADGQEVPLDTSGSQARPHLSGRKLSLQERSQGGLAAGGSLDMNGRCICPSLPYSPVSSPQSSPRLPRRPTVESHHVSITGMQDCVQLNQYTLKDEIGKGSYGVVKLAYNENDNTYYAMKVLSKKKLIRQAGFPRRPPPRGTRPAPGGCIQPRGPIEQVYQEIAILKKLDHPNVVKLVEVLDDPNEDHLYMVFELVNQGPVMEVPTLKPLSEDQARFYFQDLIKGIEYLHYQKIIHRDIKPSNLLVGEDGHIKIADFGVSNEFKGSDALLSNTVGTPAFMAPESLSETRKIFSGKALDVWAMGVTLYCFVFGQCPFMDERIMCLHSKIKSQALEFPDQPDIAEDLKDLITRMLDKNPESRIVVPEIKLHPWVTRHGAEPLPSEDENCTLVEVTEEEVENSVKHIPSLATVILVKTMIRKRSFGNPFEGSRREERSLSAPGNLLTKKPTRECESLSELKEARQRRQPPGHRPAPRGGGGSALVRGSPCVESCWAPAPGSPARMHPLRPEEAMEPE
UniProt Q13021: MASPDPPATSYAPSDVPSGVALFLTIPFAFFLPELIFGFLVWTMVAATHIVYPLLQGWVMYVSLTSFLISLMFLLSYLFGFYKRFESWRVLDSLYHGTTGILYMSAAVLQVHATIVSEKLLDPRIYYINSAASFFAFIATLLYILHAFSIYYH
UniProt P25787: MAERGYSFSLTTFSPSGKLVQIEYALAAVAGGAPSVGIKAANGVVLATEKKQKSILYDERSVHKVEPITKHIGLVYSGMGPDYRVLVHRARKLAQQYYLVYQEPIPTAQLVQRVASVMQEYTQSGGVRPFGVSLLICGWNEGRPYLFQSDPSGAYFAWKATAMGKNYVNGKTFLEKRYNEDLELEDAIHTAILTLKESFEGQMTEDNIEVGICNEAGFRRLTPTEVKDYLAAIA
UniProt Q15833: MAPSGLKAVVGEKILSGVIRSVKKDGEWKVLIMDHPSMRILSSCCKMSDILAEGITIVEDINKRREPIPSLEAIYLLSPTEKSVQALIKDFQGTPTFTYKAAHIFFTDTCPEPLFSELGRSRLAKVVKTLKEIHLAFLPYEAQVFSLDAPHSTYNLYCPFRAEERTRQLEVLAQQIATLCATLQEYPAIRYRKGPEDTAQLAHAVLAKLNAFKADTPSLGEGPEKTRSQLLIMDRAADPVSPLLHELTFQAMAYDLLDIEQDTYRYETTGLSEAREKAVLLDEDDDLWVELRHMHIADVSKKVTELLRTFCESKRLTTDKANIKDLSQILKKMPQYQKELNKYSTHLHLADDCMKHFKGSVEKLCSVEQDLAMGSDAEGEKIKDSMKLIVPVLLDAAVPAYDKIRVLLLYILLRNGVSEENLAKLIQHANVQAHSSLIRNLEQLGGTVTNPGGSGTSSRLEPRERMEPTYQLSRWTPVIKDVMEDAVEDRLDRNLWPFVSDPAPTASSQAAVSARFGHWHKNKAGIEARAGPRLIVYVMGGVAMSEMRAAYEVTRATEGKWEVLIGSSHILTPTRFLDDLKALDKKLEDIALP

Assays:
Assay in all cases: human ORF protein microarray
ACPP (Homo sapiens) = ACPP (Homo sapiens) (UniProt P15309); details: 5' phosphate; Domain array: 20 mM Tris-HCl pH 7.4, 200 mM KCl, 0.2 mM EDTA, 0.05% NP40, 2 ug/ul heparin, overnight 4 C. ORF array: PBS pH 7.0 with RNase inhibitor, 100 ng RNA, 1 h.; recombinant protein; protein details: N-terminal GST-6xHis; label: internal DY647 at G18; letters put together from the description
CCNK (Homo sapiens) = biological target: T1, CCNK (Homo sapiens) (UniProt O75909); details: 5' phosphate; Domain array: 20 mM Tris-HCl pH 7.4, 200 mM KCl, 0.2 mM EDTA, 0.05% NP40, 2 ug/ul heparin, overnight 4 C. ORF array: PBS pH 7.0 with RNase inhibitor, 100 ng RNA, 1 h.; recombinant protein; protein details: N-terminal GST-6xHis; label: internal DY647 at G18; letters put together from the description
T1 sequence (looked up, limits assumed): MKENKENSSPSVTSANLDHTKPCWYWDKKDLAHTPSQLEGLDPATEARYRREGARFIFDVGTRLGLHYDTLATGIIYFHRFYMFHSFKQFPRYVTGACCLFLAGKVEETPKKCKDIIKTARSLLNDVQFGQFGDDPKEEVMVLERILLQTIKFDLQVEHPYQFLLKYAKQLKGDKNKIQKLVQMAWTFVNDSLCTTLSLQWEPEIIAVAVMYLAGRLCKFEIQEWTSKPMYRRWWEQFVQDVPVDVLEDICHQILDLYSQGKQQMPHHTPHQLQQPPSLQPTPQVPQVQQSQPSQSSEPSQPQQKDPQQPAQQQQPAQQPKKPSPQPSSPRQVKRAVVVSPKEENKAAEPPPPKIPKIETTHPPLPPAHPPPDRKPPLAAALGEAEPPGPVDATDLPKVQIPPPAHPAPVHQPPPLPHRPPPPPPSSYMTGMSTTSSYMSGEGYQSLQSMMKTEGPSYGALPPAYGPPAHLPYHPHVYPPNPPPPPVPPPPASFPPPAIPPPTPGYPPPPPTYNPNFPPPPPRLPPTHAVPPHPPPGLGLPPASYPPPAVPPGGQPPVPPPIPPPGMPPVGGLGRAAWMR

WFDC11 (Homo sapiens) = WFDC11 (Homo sapiens) (UniProt Q8NEX6); details: 5' phosphate; Domain array: 20 mM Tris-HCl pH 7.4, 200 mM KCl, 0.2 mM EDTA, 0.05% NP40, 2 ug/ul heparin, overnight 4 C. ORF array: PBS pH 7.0 with RNase inhibitor, 100 ng RNA, 1 h.; recombinant protein; protein details: N-terminal GST-6xHis; label: internal DY647 at G18; letters put together from the description
BRD2 (Homo sapiens) = BRD2 (Homo sapiens) (UniProt P25440); details: 5' phosphate; amino-C6 U at position 18; Domain array: 20 mM Tris-HCl pH 7.4, 200 mM KCl, 0.2 mM EDTA, 0.05% NP40, 2 ug/ul heparin, overnight 4 C. ORF array: PBS pH 7.0 with RNase inhibitor, 100 ng RNA, 1 h.; recombinant protein; protein details: N-terminal GST-6xHis; label: internal Cy5 or DY647
CAMKK2 (Homo sapiens) = CAMKK2 (Homo sapiens) (UniProt Q96RR4); details: 5' phosphate; amino-C6 U at position 18; Domain array: 20 mM Tris-HCl pH 7.4, 200 mM KCl, 0.2 mM EDTA, 0.05% NP40, 2 ug/ul heparin, overnight 4 C. ORF array: PBS pH 7.0 with RNase inhibitor, 100 ng RNA, 1 h.; recombinant protein; protein details: N-terminal GST-6xHis; label: internal Cy5 or DY647
CNN3 (Homo sapiens) = biological target: T2, CNN3 (Homo sapiens) (UniProt Q15417); details: 5' phosphate; amino-C6 U at position 18; Domain array: 20 mM Tris-HCl pH 7.4, 200 mM KCl, 0.2 mM EDTA, 0.05% NP40, 2 ug/ul heparin, overnight 4 C. ORF array: PBS pH 7.0 with RNase inhibitor, 100 ng RNA, 1 h.; recombinant protein; protein details: N-terminal GST-6xHis; label: internal Cy5 or DY647
T2 sequence (looked up, limits assumed): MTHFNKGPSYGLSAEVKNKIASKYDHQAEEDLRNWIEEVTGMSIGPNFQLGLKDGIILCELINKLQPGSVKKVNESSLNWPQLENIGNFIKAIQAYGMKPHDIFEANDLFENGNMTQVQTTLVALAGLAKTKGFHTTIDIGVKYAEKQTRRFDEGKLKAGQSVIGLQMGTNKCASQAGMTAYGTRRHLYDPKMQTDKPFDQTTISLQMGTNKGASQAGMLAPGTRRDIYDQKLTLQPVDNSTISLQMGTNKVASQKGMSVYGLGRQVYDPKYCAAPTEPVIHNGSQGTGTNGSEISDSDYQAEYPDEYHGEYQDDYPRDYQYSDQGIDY

GNAS (Homo sapiens) = details: 5' phosphate; amino-C6 U at position 18; Domain array: 20 mM Tris-HCl pH 7.4, 200 mM KCl, 0.2 mM EDTA, 0.05% NP40, 2 ug/ul heparin, overnight 4 C. ORF array: PBS pH 7.0 with RNase inhibitor, 100 ng RNA, 1 h.; recombinant protein; protein details: N-terminal GST-6xHis; label: internal Cy5 or DY647
MALL (Homo sapiens) = MALL (Homo sapiens) (UniProt Q13021); details: 5' phosphate; amino-C6 U at position 18; Domain array: 20 mM Tris-HCl pH 7.4, 200 mM KCl, 0.2 mM EDTA, 0.05% NP40, 2 ug/ul heparin, overnight 4 C. ORF array: PBS pH 7.0 with RNase inhibitor, 100 ng RNA, 1 h.; recombinant protein; protein details: N-terminal GST-6xHis; label: internal Cy5 or DY647
NCAPH2 (Homo sapiens) = biological target: T3, NCAPH2 (Homo sapiens) (UniProt Q6IBW4); details: 5' phosphate; amino-C6 U at position 18; Domain array: 20 mM Tris-HCl pH 7.4, 200 mM KCl, 0.2 mM EDTA, 0.05% NP40, 2 ug/ul heparin, overnight 4 C. ORF array: PBS pH 7.0 with RNase inhibitor, 100 ng RNA, 1 h.; recombinant protein; protein details: N-terminal GST-6xHis; label: internal Cy5 or DY647
T3 sequence (looked up, limits assumed): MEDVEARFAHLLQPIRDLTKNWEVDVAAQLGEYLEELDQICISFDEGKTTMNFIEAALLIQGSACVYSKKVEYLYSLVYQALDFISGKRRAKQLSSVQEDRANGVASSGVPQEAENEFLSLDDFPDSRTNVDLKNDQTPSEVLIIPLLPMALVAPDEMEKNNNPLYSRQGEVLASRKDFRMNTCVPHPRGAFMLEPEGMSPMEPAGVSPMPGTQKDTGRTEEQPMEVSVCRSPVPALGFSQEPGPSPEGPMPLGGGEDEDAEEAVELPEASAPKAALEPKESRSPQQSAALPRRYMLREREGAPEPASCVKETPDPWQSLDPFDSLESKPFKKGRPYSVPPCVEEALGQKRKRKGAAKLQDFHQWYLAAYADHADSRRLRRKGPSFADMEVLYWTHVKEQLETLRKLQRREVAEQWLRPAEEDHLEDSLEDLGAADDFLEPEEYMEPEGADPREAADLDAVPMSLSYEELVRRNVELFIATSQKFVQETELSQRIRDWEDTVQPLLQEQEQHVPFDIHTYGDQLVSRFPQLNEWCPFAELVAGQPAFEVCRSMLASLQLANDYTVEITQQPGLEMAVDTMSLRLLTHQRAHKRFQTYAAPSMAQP

PSMA2 (Homo sapiens) = PSMA2 (Homo sapiens) (UniProt P25787); details: 5' phosphate; amino-C6 U at position 18; Domain array: 20 mM Tris-HCl pH 7.4, 200 mM KCl, 0.2 mM EDTA, 0.05% NP40, 2 ug/ul heparin, overnight 4 C. ORF array: PBS pH 7.0 with RNase inhibitor, 100 ng RNA, 1 h.; recombinant protein; protein details: N-terminal GST-6xHis; label: internal Cy5 or DY647
STXBP2 (Homo sapiens) = STXBP2 (Homo sapiens) (UniProt Q15833); details: 5' phosphate; amino-C6 U at position 18; Domain array: 20 mM Tris-HCl pH 7.4, 200 mM KCl, 0.2 mM EDTA, 0.05% NP40, 2 ug/ul heparin, overnight 4 C. ORF array: PBS pH 7.0 with RNase inhibitor, 100 ng RNA, 1 h.; recombinant protein; protein details: N-terminal GST-6xHis; label: internal Cy5 or DY647

Measured: binding result

CAGUGCAAUGAUGAAAGGGCAU [miR-130b (internal labeling)]
binds: ACPP (Homo sapiens) | CCNK (Homo sapiens)

UAGCUUAUCAGACUGAUGUUGA [miR-21 (internal labeling)]
binds: WFDC11 (Homo sapiens)

UGAGGUAGUAGGUUGUGUGGUU [let-7b (internal labeling)]
not listed: ACPP (Homo sapiens) | CCNK (Homo sapiens) | WFDC11 (Homo sapiens)
binds: all other assays above

The exact form of at least one protein or probe is not confirmed. For some assays here: Tags and fusion partners may be left off the protein sequences shown.
